In PMC5432348:

Target: T1, tetraspanin Co-029/tspan8 (UniProt P19075)
T1 sequence: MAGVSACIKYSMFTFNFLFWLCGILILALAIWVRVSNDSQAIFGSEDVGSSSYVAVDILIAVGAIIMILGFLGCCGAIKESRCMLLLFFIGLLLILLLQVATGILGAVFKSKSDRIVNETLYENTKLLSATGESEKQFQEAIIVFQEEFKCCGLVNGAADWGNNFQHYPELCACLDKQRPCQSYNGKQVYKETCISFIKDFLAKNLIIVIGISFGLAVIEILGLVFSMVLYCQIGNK
Assay: cross-linking; intact cells incubated 30 min at 4°C with 0.7 mM membrane-impermeant BS3 in PBS; lysis in 1% Triton X-100; immunoprecipitation with Co-029 mAb; the ~200-220 kDa cross-linked product analysed by mass spectrometry

- binding: binds
Substance: E-cadherin (human (endogenous in Isreco1))

No constants are given. Whether binding was seen depends on the method and setting. In cells and extracts the contact can be indirect. A result given as binding can be weak or reduced; the word gives no strength.
